The target of this test is VASH1^44–315 (human) (UniProt Q7L8A9). The test is described as follows: crystal structure; co-expressed and co-purified VASH1 44-315 / SVBP 1-66 heterodimer; 2.28 Å, Pt-SAD phasing; one complex in the asymmetric unit; both purified.

By UniProt entry, the sequences of proteins in these tests, tags left out. Residues count along the entry.
UniProt Q7L8A9, residues 44-315: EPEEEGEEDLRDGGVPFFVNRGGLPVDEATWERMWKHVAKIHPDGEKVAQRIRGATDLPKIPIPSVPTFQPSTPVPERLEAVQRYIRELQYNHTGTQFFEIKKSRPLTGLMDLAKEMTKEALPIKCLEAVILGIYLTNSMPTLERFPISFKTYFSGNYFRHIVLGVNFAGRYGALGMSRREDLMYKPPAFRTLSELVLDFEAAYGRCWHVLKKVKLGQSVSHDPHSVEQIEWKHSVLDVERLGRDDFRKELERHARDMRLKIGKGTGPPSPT

Results are given in words; binding and its absence hold for the method and conditions named. Some results given as binding are weak or reduced against the parent protein; the word gives no strength.

B1: SVBP^1–66 (protein, UniProt Q8N300 1-66)
chain: MDPPARKEKTKVKESVSRVEKAKQKSAQQELKQRQRAEIYALNRVMTELEQQQFDEFCKQMQPPGE
In the case of B1, the binding entry was “binds”.

The values are drawn from article PMC6937246.
